Data: PubChem BioAssay AID493014 (National Center for Advancing Translational Sciences (NCATS), 2011)
This is one part of the list. Shown are side measurements of this screen, not its main read-out; they come without a call. Most of these compounds were active or inconclusive in the main read-out, so they are no random draw. The note in brackets gives the kind of curve behind each potency; many fits are weak.

Test: qHTS Assay to Find Inhibitors of Chronic Active B-Cell Receptor Signaling
Details: ABC-DLBCL IkBa-CBG/CBR reporter, luminescence ratio (green luciferase fused to IkBa over red control in TMD8 lymphoma cells), 4 h; measured here: CBR red luminescence, cell number
Method in brief: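 Compounds up to 46 uM were incubated four hours with TMD8 cells whose green CBG68 luciferase is fused to IkappaBalpha; red CBR luminescence normalised the signal, and concentration-effect curves were fitted to fusion, red and ratio data.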

Compound | AC50
O=C(CCC(=O)Nc1cccc([N+](=O)[O-])c1)N/N=C/c1cccs1 | 0.501 µM [rising, single point]
COc1ccc(CC(=O)OCC(=O)NC(=O)Nc2ccccc2F)cc1 | 0.82 µM [rising, partial curve, poor fit]
O=C(CNC(=O)c1cccs1)NCCN1CCN(c2ccccc2F)CC1 | 3.66 µM [rising, full curve, poor fit]
CSC1=N/C(=C\c2cccnc2)C(=O)N1c1ccccc1 | 16.4 µM [falling, partial curve]
C/C(Cl)=C/Cn1c(SC(C)C)nc2c1c(=O)[nH]c(=O)n2C | 14.6 µM [rising, partial curve, poor fit]
CCCn1c(N)c(C(=O)CSc2nnc(C3CC3)n2C2CC2)c(=O)[nH]c1=O | 23.1 µM [rising, partial curve, poor fit]
Cc1ccc(C)c(-c2cc(C(=O)Nc3nccs3)c3ccccc3n2)c1 | 3.55 µM [falling, full curve]
COc1cccc(/C=N\NC(C)=O)c1OC/C=C/c1ccccc1 | 3.16 µM [rising, partial curve, poor fit]
CSc1ccc(NC(=O)/C=C/C(=O)O)cc1 | 12.6 µM [rising, single point]
COc1cc2c(cc1OC)CN(CCC(=O)c1ccc(Br)cc1)CC2 | 22.4 µM [falling, single point]
COc1cccc(-c2cc(C(=O)NCC3CCCO3)c3ccccc3n2)c1 (stereo unspecified) | 4.11 µM [rising, partial curve, poor fit]
COc1ccc(NC(=O)Cn2nnc(C(=O)Nc3ccccc3C)c2N)cc1 | 35.5 µM [falling, single point]
CCc1nnc(NC(=O)CSc2nnc(-c3ccccc3OC)n2-c2ccc(C)cc2)s1 | 0.651 µM [falling, partial curve, poor fit]
COc1cccc(CN2CCC(C(=O)N3CCN(c4ccccc4F)CC3)CC2)c1OC | 18.4 µM [rising, partial curve, poor fit]
Cc1ccc(NC(=O)C2CCN(S(=O)(=O)c3ccc4c(c3)CCCC(=O)N4)CC2)c(Br)c1 | 1 µM [rising, full curve, poor fit]
Cc1ccccc1N1C(=O)Cc2ccccc2C1=O | 35.5 µM [falling, single point]
O=C(c1ccco1)N1CCN(C(=O)c2cccs2)CC1 | 2.06 µM [rising, single point]
CCn1c(=O)c(C(=O)Nc2ccc(C)cc2)c(O)c2ccccc21 | 0.708 µM [falling, full curve]
Nc1nc2nc(-c3cccs3)cc(C(F)(F)F)n2n1 | 1.41 µM [rising, full curve, poor fit]
CC1CCN(c2ccc(-c3cccs3)nn2)CC1 | 3.16 µM [falling, full curve]
Cc1ccccc1OCC(=O)N/N=C/c1ccc(Sc2nc3ccccc3s2)o1 | 32.6 µM [rising, partial curve, poor fit]

Compound | AC50
CCc1ccccc1-n1c(SCC(=O)Nc2ccc(C)cc2)nc2n[nH]c(C)c2c1=N | 17.8 µM [falling, single point]
Cc1ccc(NC(=O)CC2(CC(=O)O)CCCC2)c(C)c1 | 3.55 µM [falling, single point]
O=C1Nc2ccccc2C12OCC(COc1ccc(Cl)cc1)O2 (stereo unspecified) | 0.366 µM [rising, full curve, poor fit]
Cc1cccc(C)c1OCC(=O)Nc1ccc2c(c1)OCCO2 | 3.98 µM [falling, full curve, poor fit]
COc1ccc(CNC(=O)CSc2ncnc3nc[nH]c23)cc1 | 12.6 µM [rising, partial curve, poor fit]
CCC/C(C)=N/NC(=O)c1ccccc1O | 1.46 µM [falling, full curve, poor fit]
COC(=O)c1c(NC(=O)CN2CCN(c3ncccn3)CC2)sc(C(N)=O)c1C | 7.94 µM [rising, partial curve]
CCOc1ccc2[nH]c(=O)c(CN(CC3COCCO3)C(=O)c3ccc(C)cc3)cc2c1 (stereo unspecified) | 5.62 µM [falling, single point]
Cc1ccc(S(=O)(=O)/N=C2/NC(=O)/C(=C\c3cc(Br)cc(Br)c3O)S2)cc1 | 15.8 µM [rising, single point]
Cc1ccc(-c2nc3sc4c(c3c(=O)n2N)CCCC4)cc1 | 0.731 µM [rising, full curve, poor fit]
C=C(C)CNC(=O)c1ccc(OC2CCN(S(=O)(=O)N(C)C)CC2)cc1 | 15.8 µM [rising, single point]
O=C(Nc1ccccc1-c1ccccc1)c1cnccn1 | 3.16 µM [rising, full curve, poor fit]
COc1ccc(C(=O)Nc2ccc3c(c2)N(C2CCCC2)C(=O)c2ccccc2S3)cc1OC | 3.16 µM [falling, partial curve, poor fit]
CC(Nc1cccc([N+](=O)[O-])c1)C(=O)Nc1ccc(S(=O)(=O)N2CCCC2)cc1 (stereo unspecified) | 32.6 µM [falling, single point]
CCOc1cccc(SCc2noc(C(=O)NC(C)C)c2C(=O)O)c1 | 35.5 µM [falling, single point]
COc1ccc(C(=O)N/N=C/c2ccc(OC)c(OS(=O)(=O)c3ccccc3)c2)cc1 | 7.31 µM [falling, partial curve]
Cc1ccc(C)c2[nH]c(=O)c(CN(CCN3CCCC3)C(=O)Nc3ccc(F)cc3)cc12 | 22.4 µM [falling, single point]
COc1cccc(/C=N/NC(=O)c2ccc3nc[nH]c3c2)c1O | 17.8 µM [falling, single point]
COc1ccc(S(=O)(=O)N2CCN(C(=O)CN3C(=O)NC4(CCCC4)C3=O)CC2)cc1 | 6.31 µM [falling, single point]
COC(=O)CSc1nnc(SCc2ccc(Cl)cc2)s1 | 9.2 µM [falling, partial curve, poor fit]

An excerpt from the list above, for reference:
Compound | AC50
COc1ccc(CNC(=O)CSc2ncnc3nc[nH]c23)cc1 | 12.6 µM [rising, partial curve, poor fit]
CCC/C(C)=N/NC(=O)c1ccccc1O | 1.46 µM [falling, full curve, poor fit]
